Experimental data taken from doi:10.1101/2024.07.12.603331.
No constants are given. Whether binding was seen depends on the method and setting.

By UniProt entry, the sequences of proteins in these tests, tags left out. Residues count along the entry.
UniProt O12792, residues 74-429: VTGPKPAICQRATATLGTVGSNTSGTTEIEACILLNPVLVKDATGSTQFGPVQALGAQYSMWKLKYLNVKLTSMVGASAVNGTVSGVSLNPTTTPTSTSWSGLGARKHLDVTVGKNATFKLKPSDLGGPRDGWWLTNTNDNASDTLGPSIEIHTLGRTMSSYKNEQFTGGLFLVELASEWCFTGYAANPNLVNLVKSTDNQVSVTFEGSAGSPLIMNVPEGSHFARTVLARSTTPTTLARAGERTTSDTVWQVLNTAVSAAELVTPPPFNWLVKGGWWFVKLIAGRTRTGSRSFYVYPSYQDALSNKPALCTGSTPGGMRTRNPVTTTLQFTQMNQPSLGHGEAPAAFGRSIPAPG
UniProt P27487, residues 39-766: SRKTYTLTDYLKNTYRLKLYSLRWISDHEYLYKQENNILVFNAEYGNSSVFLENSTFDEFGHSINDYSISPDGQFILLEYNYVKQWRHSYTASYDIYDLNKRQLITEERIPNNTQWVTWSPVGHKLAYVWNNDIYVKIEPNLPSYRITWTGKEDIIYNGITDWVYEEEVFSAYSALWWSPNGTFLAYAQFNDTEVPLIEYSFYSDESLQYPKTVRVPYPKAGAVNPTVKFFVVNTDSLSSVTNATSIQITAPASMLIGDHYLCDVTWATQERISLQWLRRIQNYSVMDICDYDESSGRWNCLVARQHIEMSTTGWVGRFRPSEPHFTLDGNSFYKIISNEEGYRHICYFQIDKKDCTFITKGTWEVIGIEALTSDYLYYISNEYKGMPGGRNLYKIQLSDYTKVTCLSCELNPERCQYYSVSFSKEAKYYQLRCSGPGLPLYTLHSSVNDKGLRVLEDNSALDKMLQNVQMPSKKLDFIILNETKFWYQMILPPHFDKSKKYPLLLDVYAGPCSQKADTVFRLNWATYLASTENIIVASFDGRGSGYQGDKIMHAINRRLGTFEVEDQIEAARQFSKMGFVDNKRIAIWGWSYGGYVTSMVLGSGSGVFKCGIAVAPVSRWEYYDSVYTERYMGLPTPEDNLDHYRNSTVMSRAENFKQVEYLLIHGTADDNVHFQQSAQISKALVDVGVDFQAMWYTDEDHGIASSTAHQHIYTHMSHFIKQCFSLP

Target: HAstV1 VP34 (residues V74 to G429) (human astrovirus 1 (HAstV1)) (UniProt O12792)
Assay: BLI

soluble extracellular domain of human DPP4 (residues S39-P766) (from UniProt P27487 39-766) (domain or fragment)
binding: no binding (tested: 1 uM)
